Test results: WO2017222556A2 (dated 2017)
Results are given in words; binding and its absence hold for the method and conditions named. Some entries that bind do so weakly or less than the wild type. For some assays here: Tags and fused reporters may be left off the sequences shown.

Experiments:
[1] = biological target: T1, mouse NKG2D-Fc (mouse, UniProt O54709 94-232); assay: competition ELISA: inhibition of mouse NKG2D-Fc binding to plate-coated MICA
T1 construct: also called murine NKG2D-Fc; murine NKG2D; not shown: Fc part, not described
T1 sequence (looked up): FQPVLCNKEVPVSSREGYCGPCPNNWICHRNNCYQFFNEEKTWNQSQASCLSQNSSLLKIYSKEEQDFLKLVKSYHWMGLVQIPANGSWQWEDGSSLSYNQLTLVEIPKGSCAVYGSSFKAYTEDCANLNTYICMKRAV

[2] = biological target: T2, human NKG2D-Fc (human, UniProt P26718 78-216); assay: competition ELISA: inhibition of human NKG2D-Fc binding to plate-coated WT sMICA
T2 construct: also called human NKG2D-Fc reagent; not shown: Fc part, not described
T2 sequence (looked up): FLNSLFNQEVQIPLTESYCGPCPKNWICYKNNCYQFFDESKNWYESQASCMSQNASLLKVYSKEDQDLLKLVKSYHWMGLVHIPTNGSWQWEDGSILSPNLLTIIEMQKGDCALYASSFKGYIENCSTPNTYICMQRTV

B1: WT al-a2 soluble MICA protein (ligand, UniProt Q29983 24-204, looked up, not shown: small tags and cut ends)
chain: EPHSLRYNLTVLSWDGSVQSGFLTEVHLDGQPFLRCDRQKCRAKPQGQWAEDVLGNKTWDRETRDLTGNGKDLRMTLAHIKDQKEGLHSLQEIRVCEIHEDNSTRSSQHFYYDGELFLSQNLETKEWTMPQSSRAQTLAMNVRNFLKEDAMKTKTHYHAMHADCLQELRRYLKSGVVLRRT
binding [1]: binds | binding [2]: binds
